# Test results: paper PMC5550436
# The exact form of at least one protein or probe is not confirmed.
# System: Flag-STAT5
# Assay: EMSA
# Conditions: unlabeled-probe competition and anti-STAT5 supershift described in Methods; LightShift Chemiluminescent RNA EMSA kit reaction buffer (composition and pH not stated), room temperature, 20 min; 4% polyacrylamide gel, 0.5x TBE; recombinant protein; protein details: Flag
sequence,measurement,value
CGGAGCCTAAAGCTGTTGCTTCGTGGAACTTAGACTAGCGGGAGAATTCAGTGTG (double strand) [Sall3 promoter probe],binding result,binds
